Data from PMC2585478.
No constants are given. Whether binding was seen depends on the method and setting. Binding seen in cells or lysates may run through a third protein. Some results given as binding are weak or reduced against the parent protein; the word gives no strength.

Target: GST-SH2-Src (UniProt P12931)
Assay: pull-down; immobilised GST fusion proteins incubated with normalized whole cell lysates of PAE cells (unstimulated or stimulated with CSF-1 or VEGF for 10 minutes; also cells co-expressing c-Cbl, Cbl-N or c-Cbl siRNA) by rocking for 3 h at 4°C; beads washed four times; Western blot; only the target purified

For “full length VEGFR-2 (non-chimeric) (from UniProt P35918 20-1345) (receptor)”, the binding was “binds”.
